From patent US20160145308A1 (SANFORD BURNHAM MEDICAL RESEARCH INSTITUTE, published 2016)
No constants are given. Whether binding was seen depends on the method and setting. Some entries that bind do so weakly or less than the wild type.

Target: T1, cyclic nucleotide-gated channel beta 3 (CNGB3), from membrane fraction of human endometriosis tissue (human) (UniProt Q9NQW8)
T1 sequence: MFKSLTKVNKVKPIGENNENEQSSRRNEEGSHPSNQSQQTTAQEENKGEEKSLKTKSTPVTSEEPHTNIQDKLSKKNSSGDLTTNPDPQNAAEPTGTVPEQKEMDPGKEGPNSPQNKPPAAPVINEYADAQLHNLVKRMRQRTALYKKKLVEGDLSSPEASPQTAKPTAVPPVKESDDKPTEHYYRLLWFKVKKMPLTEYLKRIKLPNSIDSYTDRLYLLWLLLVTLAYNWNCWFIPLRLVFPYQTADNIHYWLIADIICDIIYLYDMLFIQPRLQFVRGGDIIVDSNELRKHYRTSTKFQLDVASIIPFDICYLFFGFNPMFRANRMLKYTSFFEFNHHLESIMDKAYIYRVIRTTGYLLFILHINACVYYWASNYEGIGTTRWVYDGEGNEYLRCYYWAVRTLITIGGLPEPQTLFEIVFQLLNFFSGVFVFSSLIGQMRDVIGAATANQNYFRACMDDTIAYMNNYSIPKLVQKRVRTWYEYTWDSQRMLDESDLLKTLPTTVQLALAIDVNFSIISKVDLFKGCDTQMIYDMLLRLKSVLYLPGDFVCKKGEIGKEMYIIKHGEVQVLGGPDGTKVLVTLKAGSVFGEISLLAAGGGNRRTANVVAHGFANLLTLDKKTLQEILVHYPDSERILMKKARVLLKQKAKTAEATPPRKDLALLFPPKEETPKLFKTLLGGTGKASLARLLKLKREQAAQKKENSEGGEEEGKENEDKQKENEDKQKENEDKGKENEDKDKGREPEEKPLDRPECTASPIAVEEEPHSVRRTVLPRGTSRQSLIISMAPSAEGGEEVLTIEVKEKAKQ
Assay: affinity chromatography on z13-conjugated agarose beads, elution with free z13 peptide, silver stain, MALDI-TOF

CVRRADNRPG (N-terminal Cys coupled to sulfo-link agarose beads) [z13-conjugated agarose beads (cys-z13 peptide on sulfo-link agarose)]
binding: binds
